Sequences of proteins named here, by UniProt entry; tags and fusion partners are left off.
UniProt Q9QUR7: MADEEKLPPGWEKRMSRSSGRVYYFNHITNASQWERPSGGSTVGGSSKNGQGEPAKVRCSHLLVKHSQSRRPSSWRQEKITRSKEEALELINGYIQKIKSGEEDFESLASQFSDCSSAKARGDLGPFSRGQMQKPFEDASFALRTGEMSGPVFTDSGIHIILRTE

According to paper PMC12005807:

Biological target: T1, Flag-tagged Gbp2 (UniProt Q9Z0E6)
T1 sequence: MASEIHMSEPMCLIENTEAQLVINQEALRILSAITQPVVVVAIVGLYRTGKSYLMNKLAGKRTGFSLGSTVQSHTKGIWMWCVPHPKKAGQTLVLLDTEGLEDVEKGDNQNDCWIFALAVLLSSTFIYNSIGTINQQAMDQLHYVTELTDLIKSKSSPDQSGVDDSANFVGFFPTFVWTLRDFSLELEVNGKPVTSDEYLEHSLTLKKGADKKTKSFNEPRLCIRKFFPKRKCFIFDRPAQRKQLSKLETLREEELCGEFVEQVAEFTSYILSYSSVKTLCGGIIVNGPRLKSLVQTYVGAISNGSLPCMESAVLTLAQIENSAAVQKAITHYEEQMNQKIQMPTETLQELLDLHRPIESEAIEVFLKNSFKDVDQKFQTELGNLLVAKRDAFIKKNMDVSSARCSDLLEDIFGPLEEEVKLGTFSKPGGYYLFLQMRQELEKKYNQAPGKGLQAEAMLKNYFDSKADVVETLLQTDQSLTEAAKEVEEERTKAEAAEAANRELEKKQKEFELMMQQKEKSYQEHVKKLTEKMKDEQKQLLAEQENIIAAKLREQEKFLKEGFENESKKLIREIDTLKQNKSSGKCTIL
Experiment: affinity purification with mass spectrometry; co-immunoprecipitation of Gbp2 followed by proteomic profiling; proteins ranked by peptide-spectrum matches

binding: binds
Substance: Pin1 (from UniProt Q9QUR7 1-165)

These are yes or no findings as the source states them, for the method shown. Binding seen in cells or lysates may run through a third protein. These calls come from enrichment with a bait or labelling near it, and not all partners need be listed. Sequences can lack the tags named with a protein.
